Experimental data: patent publication US20110300100A1 (CSL, published 2011)
Results are given in words; binding and its absence hold for the method and conditions named. Some entries that bind do so weakly or less than the wild type. Tags and fused reporters may be left off the sequences shown. Values belong to the binder of their own block, whether it stands above or below them.

What was measured:
mIL-11Rα-Fc [1] = molecular target: T1, mIL-11Rα-Fc (murine, UniProt Q64385 24-372); assay: comparison with full-length 1.21; assay not named
T1 construct: Coated on the ELISA plates; not shown: Fc part of the bought fusion protein
T1 sequence (looked up): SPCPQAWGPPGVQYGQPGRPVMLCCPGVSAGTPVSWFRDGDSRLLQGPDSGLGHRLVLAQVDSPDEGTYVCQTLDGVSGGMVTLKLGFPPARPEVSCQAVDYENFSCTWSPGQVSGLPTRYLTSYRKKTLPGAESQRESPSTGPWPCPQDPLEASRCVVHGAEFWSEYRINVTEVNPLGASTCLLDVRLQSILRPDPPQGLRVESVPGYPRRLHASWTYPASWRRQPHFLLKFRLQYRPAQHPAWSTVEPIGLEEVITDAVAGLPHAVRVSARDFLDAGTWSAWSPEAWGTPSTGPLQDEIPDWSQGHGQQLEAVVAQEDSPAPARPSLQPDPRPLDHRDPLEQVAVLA

mIL-11Rα-Fc [2] = molecular target: T1, mIL-11Rα-Fc; assay: capture ELISA on coated mIL-11Rα-Fc, detection with biotinylated anti-mIL-11
mIL-11Rα-Fc [3] = molecular target: T1, mIL-11Rα-Fc; assay: competition ELISA, soluble protein against phage displayed IL-11 variants on coated mIL-11Rα-Fc
Description: The affinity of the selected IL-11 mutants for IL-11Rα was determined in a competition ELISA experiment. […] After incubation for 2 hours at room temperature, the plates were washed and bound phage were then labeled with an anti-M13 polyclonal antibody conjugated to horseradish peroxidase. After the removal of excess antibody by washing with PBS containing 0.05% Tween 20, TMB substrate was added to each well and incubated for 10 minutes before the reaction was quenched by the addition of 2M phosphoric acid. Absorbance at 450 nm was then determined for each well by analysis on a microtitre plate reader.
Clear differences were observed between the affinities of the mIL-11-W147A and mutant proteins for binding to IL-11Rα-Fc.

binding (mIL-11Rα-Fc [1]): binds
binding (mIL-11Rα-Fc [2]): binds
B1: non-PEGylated thrombin cleaved mutein 1.21 (amino acids 10-178 of SEQ ID NO:10) (ligand)
chain: VSSDPRADLDSAVLLTRSLLADTRQLAAQMRDKFPADGDHSLDSLPTLPAIDYTLGSLQLPGVLTRLRVDLMSYLRHVQWLRRAGGPSLKTLEPELGALQARLERLLRRLQLLMSRLALPQAAPDQPVIPLGPPASAAGSIRAAHAILGGLHLTLDWAVRGLLLLKTRL

binding (mIL-11Rα-Fc [3]): binds
B2: mIL-11-W147A, N-terminal hexahistidine-tagged (ligand, not shown: small tags and cut ends)
chain: PGPPAGSPRVSSDPRADLDSAVLLTRSLLADTRQLAAQMRDKFPADGDHSLDSLPTLAMSAGTLGSLQLPGVLTRLRVDLMSYLRHVQWLRRAGGPSLKTLEPELGALQARLERLLRRLQLLMSRLALPQAAPDQPVIPLGPPASAAGSIRAAHAILGGLHLTLDWAVRGLLLLKTRL
